Source: PubChem BioAssay AID2685 (National Center for Advancing Translational Sciences (NCATS), 2010)
This is one part of the list. The main result of the screen is listed elsewhere. These columns were measured beside it and carry no call. The list favours compounds with an active or inconclusive main result. Words in brackets tell the shape of the fitted curve; partial curves, single points and poor fits give uncertain potencies.

Experiment: qHTS Assay for Lipid Storage Modulators in Drosophila S3 Cells;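 on cell number change: cells counted by Cell Tracker Red CMTPX staining in the red channel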
Conditions: BODIPY lipid droplet fluorescence, 18-24 h; for cell number change: measured here: cell count max response, cells fed with added oleic acid
Method in brief: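 Laser-scanning cytometry quantifies lipid droplet accumulation (500–530 nm total intensity; droplet/cell object ratio) in oleic acid-fed (400 uM added) Drosophila S3 cells treated with a concentration series. 20 uM Triacsin C defined 100% inhibition.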

[1] = measured here: lipid fluorescence (Fed channel) AC50, cells fed with added oleic acid
[2] = measured here: cell number channel AC50, cells fed with added oleic acid

Structure (SMILES) | cell number change [%] | AC50 [1] | AC50 [2]
COc1ccc(NC(=O)C(=O)NNC(=O)c2cccs2)c(OC)c1 | 2.82 | 6.51 µM [rising, single point] | 
COc1cccc(C2=N/C(=C\N(C)C)C(=O)O2)c1 | -21 |  | 
NC(=O)c1ccc(C(=O)N/N=C/c2cccc(Oc3ccccc3)c2)cc1 | -0.495 | 0.58 µM [rising, single point] | 
Cc1ccc(Cl)cc1NS(=O)(=O)c1ccc2oc(=O)ccc2c1 | 6.72 | 0.13 µM [rising, partial curve, poor fit] | 
Cc1nnc2ccc(-c3ccc(NS(C)(=O)=O)cc3)nn12 | 0.823 |  | 
Cc1ccccc1C(=O)N1CCC(n2nccc2NC(=O)C2CC2)CC1 | -18.5 |  | 2.06 µM [falling, partial curve, poor fit]
CN(C)S(=O)(=O)c1cc(NC(=O)COC(=O)Cc2ccc(Cl)cc2Cl)ccc1Cl | 10.1 | 13 µM [rising, partial curve] | 
CCn1c(=O)c2ccccc2n(CC(=O)NC2CCCCC2)c1=O | -11.5 | 0.326 µM [rising, full curve, poor fit] | 
CCc1ccccc1NC(=O)CSc1nc2ccccc2nc1N1CCOCC1 | 18.7 | 20.6 µM [rising, single point] | 
O=C(NCCN1C(=O)S/C(=C\c2ccccc2F)C1=O)C1=COCCO1 | 112 |  | 13 µM [rising, partial curve]
C=CCOc1ccccc1CNCc1cccnc1 | 19.9 | 29.1 µM [rising, single point] | 
CN(Cc1ccco1)C(=O)c1ccc(S(=O)(=O)N2CCCCCC2)cc1 | -9.51 | 0.103 µM [falling, partial curve, poor fit] | 
COc1ccc(C2C(C(C)=O)=C(O)C(=O)N2CCN(C)C)cc1OC (stereo not given) | -47.9 | 29.1 µM [falling, partial curve] | 3.26 µM [falling, full curve]
O=C(CO/N=C/c1c(Cl)cccc1Cl)NNC(=O)c1cccc(Cl)c1 |  | 6.51 µM [rising, partial curve, poor fit] | 
CNC(=S)SCCOc1ccc(C)cc1 | -31.4 | 29.1 µM [falling, single point] | 29.1 µM [falling, single point]
COC(=O)Cn1c(C)nc2ccccc21 | -19.9 | 0.0731 µM [falling, full curve, poor fit] | 
Cc1ccc(NS(=O)(=O)c2cccc(C(=O)NCCCN3CCCC3=O)c2)cc1 | 29.4 | 8.2 µM [rising, partial curve] | 
Cc1ccccc1NC(=S)N(Cc1cccnc1)Cc1ccco1 | -8.67 |  | 2.06 µM [rising, partial curve]
CN(CC(=O)Nc1ccccc1C(F)(F)F)Cc1c(O)ccc2ccccc12 | -9.52 | 29.1 µM [falling, single point] | 

Taken from the listing (two entries):
Structure (SMILES) | cell number change [%] | AC50 [1] | AC50 [2]
Cc1nnc2ccc(-c3ccc(NS(C)(=O)=O)cc3)nn12 | 0.823 |  | 
Cc1ccccc1C(=O)N1CCC(n2nccc2NC(=O)C2CC2)CC1 | -18.5 |  | 2.06 µM [falling, partial curve, poor fit]

(further entries)

Structure (SMILES) | cell number change [%] | AC50 [1] | AC50 [2]
CCN(C(=O)COC(=O)CNS(=O)(=O)c1ccc2ccccc2c1)C1CCCCC1 | 2.02 | 1.3 µM [falling, partial curve, poor fit] | 
Cc1ccc(NC(=O)CN(C)C(=O)c2n[nH]c(=O)c3ccccc23)cc1 | 63 | 23.1 µM [rising, single point] | 16.4 µM [rising, single point]
O=C(c1ccccn1)N1CCN(S(=O)(=O)c2ccc(F)cc2)CC1 | 40.1 |  | 
CC(=O)N(C)c1ccc(N=NC2C(=O)N(C(N)=S)N=C2C)cc1 (stereo not given) | -15.1 | 5.17 µM [falling, single point] | 0.058 µM [falling, full curve, poor fit]
Cc1ccc(CNC(=O)CC(NC(=O)c2ccccc2)c2ccccc2)cc1 (stereo not given) | -11.9 | 0.00461 µM [falling, full curve, poor fit] | 0.0058 µM [falling, full curve, poor fit]
O=C(CN1CCCCCC1)NC(c1ccccc1)c1ccccc1 | -27 | 0.13 µM [falling, full curve, poor fit] | 
CC1(OC(=O)C2CCCC2)C(=O)C=C2C=C(c3ccsc3)N(c3ccccc3)C=C2C1=O (stereo not given) | -32.2 | 29.1 µM [falling, single point] | 
Oc1c(C(c2cccs2)N2CCC3(CC2)OCCO3)sc2ncnn12 (stereo not given) | 7.07 | 23.1 µM [falling, partial curve] | 
CCOC(=O)c1ccccc1NC(=O)COC(=O)CCNS(=O)(=O)c1ccccc1 | -9.09 | 10.3 µM [falling, partial curve, poor fit] | 
Cc1cc(C)c(NC(=O)CSc2nc3ncc(Cl)cc3[nH]2)c(C)c1 | -7.65 | 29.1 µM [rising, single point] | 
CCCCCCc1ccc(N2C[C@H](Cc3ccccc3)[C@@H](CC(=O)NCc3ccc(OC)cc3)C2=O)cc1 | 39.2 | 29.1 µM [falling, single point] | 16.4 µM [rising, single point]
Cc1ccc(S(=O)(=O)N2CCOCC2)cc1C(=O)OC1CCOC1=O (stereo not given) | 1 |  | 
COc1ccc(CN(C)C(=O)c2ccc(NS(=O)(=O)c3ccc(F)cc3)cc2)c(OC)c1OC | -0.697 | 16.4 µM [falling, single point] | 
Cc1ccc(S(=O)(=O)N(C)c2c(C)ccc(S(=O)(=O)NC(C)(C)C)c2C)cc1 | 18 | 0.146 µM [falling, full curve, poor fit] | 
CCC1CCCCN1C(=O)NC(=O)c1ccccc1 (stereo not given) | 7.67 |  | 0.103 µM [rising, single point]
COCCn1c(-c2ccco2)nc2nc3ccccc3nc21 |  | 6.51 µM [rising, single point] | 6.51 µM [rising, single point]
COC(=O)c1cc(OC)c(OC)cc1NC(=S)N1CCN(Cc2ccccc2)CC1 |  | 0.259 µM [rising, partial curve, poor fit] | 0.116 µM [rising, full curve, poor fit]
O=C(COC(=O)c1cc(Cl)ccc1Cl)Nc1ccc2[nH]c(=O)[nH]c2c1 | -7.8 | 29.1 µM [falling, single point] | 
